Measurements from patent EP4803080A1, “METHOD FOR TREATING LEUKEMIA” (Shenzhen TargetRx Co., Ltd., priority 2023, dated 2025).
The name of at least one read-out is uncertain.

System: Ba/F3 BCR-ABL1 T315M
Test: Cell growth inhibition activity test, single agents and combinations (CellTiter-Glo, Chou-Talalay)
Type: cell-based, mouse
Details: single agent, 72 hours
Experimental: A series of cell lines expressing BCR-ABL1 single mutations and compound mutations were constructed based on the Ba/F3 mouse pro-B cell line.
This assay utilized the CellTiter-Glo (CTG) kit provided by Promega, which is a homogeneous method for cell viability detection, measuring the viability of cultured cells by quantifying ATP. Cells were seeded in 96-well plates and treated with different concentrations of test substances. […] At the end of the treatment, CTG reagent (CellTiter-Glo kit) was added according to the manufacturer's instructions to detect cell viability values. Plates were read on a microplate reader (Biotek cytation 3.0). IC50 values were calculated using GraphPad Prism 7.0 software.

Q: `O=C(Nc1ccc(OC(F)(F)Cl)cc1)c1cnc(N2CC[C@@H](F)C2)c(-c2cnccn2)c1` [Compound A, (R)-N-(4-(chlorodifluoromethoxy)phenyl)-6-(3-fluoropyrrolidin-1-yl)-5-(pyrazin-2-yl)nicotinamide] was tested. Which IC50 did it give?
A: 1550 ± 584 nM
